Measurements taken from patent US5516790A, “Synthesis and application of alkyl-substituted dibenzofurans as antitumorigenic agents” (Texas A&M University System Technology Licensing Office, priority 1994, dated 1996).
Like-named read-outs stand apart in the source and are kept apart here. At least one read-out could not be matched to a standard name with certainty.

Tested on: 52-kDa protein
Type: cell-based, human
Conditions: 2880 min
Method: On day 0, the media was removed and the cells were rinsed two times with PBS. […] The cells were allowed to incubate for 48 h. […] After 6 h, the media was removed, 10 μl was counted and the remaining media was used for analysis of secreted proteins.
The secreted proteins were analyzed by sodium dodecyl sulfate (SDS) polyacrylamide gel electrophoresis; 30 μl of the media was mixed with an equal volume of buffer containing SDS, β-mercaptoethanol, glycerol, Tris and bromophenol blue. The samples were heated for 2 minutes in a boiling water bath and 50 μl of each sample was loaded onto a 1.5 mm thick 12% acrylamide slab gel (containing 0.075% bisacrylamide) with a 3% stacking gel (containing 0.15% bisacrylamide). The gels were run at […] overnight and processed for fluorography (using Enhance: Dupont) and exposed to Kodak X-OMAT film for 10 days at -80° C. The molecular weights of the proteins were estimated by their mobility relative to a set of standard proteins with known molecular weights.
The incorporation of ^35 S-methionine into the 34-kDa, 52-kDa and 160-kDa proteins was estimated by scanning the films using a Zeineh Soft Laser Scanning Densitometer (model SLR-20/10) from Biomedical Instruments,Inc. The percentage of the area of the scans due to the particular protein was then compared between the experimental and control samples and the results are presented as means ± SD for at least three samples per treatment group.

Row | Structure (SMILES) | Secreted 52-kDa protein (17β-estradiol (1 nM) + TCDD 0.0001 nM) | Secreted 52-kDa protein (17β-estradiol (1 nM) + TCDD 0.001 nM) | Secreted 52-kDa protein (17β-estradiol (1 nM) + TCDD 0.01 nM) | Secreted 52-kDa protein (17β-estradiol (1 nM) + TCDD 0.1 nM) | Secreted 52-kDa protein (TCDD alone, 0.0001 nM) | Secreted 52-kDa protein (TCDD alone, 0.001 nM) | Secreted 52-kDa protein (TCDD alone, 0.01 nM) | Secreted 52-kDa protein (TCDD alone, 0.1 nM) | Secreted 52-kDa protein (17β-estradiol alone, 1 nM) | Protein Secretion, 52-kDa (Table 9, 17β-estradiol alone (1 nM))
1 | Clc1cc2c(cc1Cl)Oc1cc(Cl)c(Cl)cc1O2 [TCDD, 2,3,7,8-tetrachloridibenzo-p-dioxin] | 164 ± 20.3% of the values for control | 126 ± 4.62% of the values for control | 103 ± 4.39% of the values for control | 94.4 ± 3.86% of the values for control | 103 ± 6.63% of the values for control | 87.7 ± 4.89% of the values for control | 93.1 ± 15.5% of the values for control | 103 ± 4.35% of the values for control |  | 
2 | C[C@]12CC[C@@H]3c4ccc(O)cc4CC[C@H]3[C@@H]1CC[C@@H]2O [17β-Estradiol] |  |  |  |  |  |  |  |  | 225 ± 27.8% of the values for control | 143 % of Control
